Test results from patent publication US8741940B2, “Microbicidal composition” (Rohm and Haas Company, priority 2005, dated 2014).

Key:
Format in all cases: cell-based
[1] = system: Escherichia coli (E. coli—ATCC #8739); experiment: Synergy test, microtiter plate high resolution MIC assay, bacterium in M9GY medium; settings: ATCC8739, 72 h, read-out: MIC of the component acting alone (QA / QB)
Experimental: (§1) When the sum of Qa/QA and Qb/QB is greater than one, antagonism is indicated. […] The lower the SI, the greater the synergy shown by that particular mixture. The minimum inhibitory concentration (MIC) of a microbicide is the lowest concentration tested under a specific set of conditions that prevents the growth of added microorganisms.
(§2) Synergy tests were conducted using standard microtiter plate assays with media designed for optimal growth of the test microorganism. Minimal salt medium supplemented with 0.2% glucose and 0.1% yeast extract (M9GY medium) was used for testing bacteria; Potato Dextrose Broth (PDB medium) was used for testing yeast and mold. In this method, a wide range of combinations of microbicides and other personal care raw materials was tested by conducting high resolution MIC assays in the presence of various concentrations of BBIT or MBIT. High resolution MICs were determined by adding varying amounts of microbicide to one column of a microtitre plate and doing subsequent […] dilutions using an automated liquid handling system to obtain a series of endpoints ranging from 2 ppm to 10,000 ppm active ingredient.
(§3) The bacteria were used at a concentration of about 5 ×10^6 bacteria per mL and the yeast and mold at 5×10^5 fungi per mL. These microorganisms are representative of natural contaminants in many consumer and industrial applications. […]

[2] = system: Candida albicans (C. albicans—ATCC 10231); experiment: Synergy test, microtiter plate high resolution MIC assay, yeast in PDB medium; settings: ATCC10231, 24 h, read-out: MIC of the component acting alone (QA / QB)
Experimental: as §1, §2, §3

[3] = system: Aspergillus niger (A. niger—ATCC 16404); experiment: Synergy test, microtiter plate high resolution MIC assay, mold in PDB medium; settings: ATCC16404, 168 h, read-out: MIC of the component acting alone (QA / QB)
Experimental: as §1, §2, §3

Structure (SMILES): CC(C)(C)CC(C)(C)c1ccc(OCCOCC[N+](C)(C)Cc2ccccc2)cc1 [Benzethonium chloride]
- MIC [1]: 20 µg/mL
- MIC [2]: 4 µg/mL
- MIC [3]: 10 µg/mL
